According to patent publication US9893302B2, “Heterocyclic fluorescent dyes and method of production thereof” (BASF SE, priority 2013, dated 2018):
Some entries share one result that the patent states for a list of compounds.

Test: Spectroscopic data: absorption, emission, Stokes shift, extinction coefficient, fluorescence quantum yield
Type: physicochemical
Text: Spectroscopic data of compounds 3a, 3b and 3d as well as comparative compounds
Rhodamine B in EtOH or Rhodamine 6G in EtOH are used as standards for quantum yield measurements.

| SMILES | fluorescence quantum yield |
| --- | --- |
| COc1cc2c(cc1OC)C1=C3C(=O)N4C=Cc5cc(OC)c(OC)cc5C4=C3C(=O)N1C=C2 [V-1] | 5-40% |
| CC(C)(C)c1cc(C(C)(C)C)c2oc3c(c2c1)C=CN1C(=O)C2=C4c5oc6c(C(C)(C)C)cc(C(C)(C)C)cc6c5C=CN4C(=O)C2=C31 [V-2] | 5-40% |
